Data source: PubChem BioAssay AID1224828 (NIAID, 2016)
Here is one part, drawn at random, of about 17,000 reagents tested. Of all reagents, 762 (4.5%) were called active. 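Active calls include both raised and lowered p65 entry, mostly lowered; wells with fewer than 50 cells lack a z-score.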 Raw values vary from plate to plate and are shown uncorrected.

Screen: 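Regulators linking TLR4 signalling to p65 nuclear translocation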 (primary screen)
Cell system: mouse RAW264.7 G9 macrophage reporter cells (GFP-p65, Tnf promoter-mCherry)
Reagents: siRNA pool against mouse genes, 100 nM
Duration: 2 days siRNA transfection, then 40 min LPS before fixation
Conditions: LPS (Salmonella minnesota R595) at 10 ng/ml
Measured: 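Microscopy ratio of nuclear to perinuclear-ring GFP-p65 signal, scaled to the plate median; gene score is the average of two replicate robust z-scores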
Reading the numbers: p65 translocation robust z-score: higher = more nuclear NF-kappaB p65 after LPS than the plate median; nuclear/cytoplasmic p65 ratio: higher = more nuclear NF-kappaB p65
Hit rule: 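Called active when z exceeds 3.3 or falls under -1.56 (median of Tlr4 controls), giving activity score of at least 50; no calls for control wells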
Calls: active = hit (p65 shift raised or lowered); inactive = no clear change

no.	Gene	p65 translocation robust z-score	nuclear/cytoplasmic p65 ratio, rep 1	nuclear/cytoplasmic p65 ratio, rep 2	low cell count flag	Outcome
1	Zfp870	0.81	1.68	1.81	enough cells to score	inactive
2	Eps8l1	0.37	1.64	1.52	enough cells to score	inactive
3	Gja10	-0.69	1.2	1.39	enough cells to score	inactive
4	Chdh	0.49	1.69	1.84	enough cells to score	inactive
5	Sertad3	-0.86	1.21	1.23	enough cells to score	inactive
6	Tmem114	2.58	1.6	1.61	enough cells to score	inactive
7	Sphk2	-0.44	1.72	1.32	enough cells to score	inactive
8	Egr3	-0.69	1.41	1.25	enough cells to score	inactive
9	Gsto2		1.35	1.36	fewer than 50 cells per well; well left out of scoring	inactive
10	Mthfr	-0.53	1.27	1.28	enough cells to score	inactive
11	Ifi27l2a	-1.09	1.43	1.47	enough cells to score	inactive
12	Or10g1b	2.1	1.96	1.67	enough cells to score	inactive
13	Sec22c	-0.88	1.24	1.19	enough cells to score	inactive
14	Slc39a11	0.35	1.42	1.32	enough cells to score	inactive
15	Clcc1	1.33	1.81	1.84	enough cells to score	inactive

In a second layout: entries from further up.
Gene | p65 translocation robust z-score | nuclear/cytoplasmic p65 ratio, rep 1 | nuclear/cytoplasmic p65 ratio, rep 2 | low cell count flag | Outcome
Chdh | 0.49 | 1.69 | 1.84 | enough cells to score | inactive
Sertad3 | -0.86 | 1.21 | 1.23 | enough cells to score | inactive
Tmem114 | 2.58 | 1.6 | 1.61 | enough cells to score | inactive
Sphk2 | -0.44 | 1.72 | 1.32 | enough cells to score | inactive
Egr3 | -0.69 | 1.41 | 1.25 | enough cells to score | inactive
Gsto2 | – | 1.35 | 1.36 | fewer than 50 cells per well; well left out of scoring | inactive

The list goes on:
no.	Gene	p65 translocation robust z-score	nuclear/cytoplasmic p65 ratio, rep 1	nuclear/cytoplasmic p65 ratio, rep 2	low cell count flag	Outcome
16	Uggt1	-1.43	1.37	1.56	enough cells to score	inactive
17	Dmgdh	-1.1	1.28	1.28	enough cells to score	inactive
18	Mrpl14	-0.01	1.79	1.49	enough cells to score	inactive
19	Cbx8	-0.93	1.42	1.26	enough cells to score	inactive
20	Ly6i	0.29	1.78	1.57	enough cells to score	inactive
21	Slc17a3	0.43	1.31	1.31	enough cells to score	inactive
22	Cypt4	0.14	1.41	1.53	enough cells to score	inactive
23	P2rx3	0.16	1.46	1.44	enough cells to score	inactive
24	Ctdsp2	-0.74	1.57	1.54	enough cells to score	inactive
25	Mthfd2	-0.28	1.68	1.6	enough cells to score	inactive
26	Rcvrn	0.05	1.76	1.3	enough cells to score	inactive
27	Acvr2b	-1.44	1.45	1.2	enough cells to score	inactive
28	Rab23	-0.23	1.57	1.4	enough cells to score	inactive
29	Cyp2c70	0.76	1.61	1.99	enough cells to score	inactive
30	Esr2	1.62	1.71	1.55	enough cells to score	inactive
31	Atg14	-0.82	1.47	1.63	enough cells to score	inactive
32	Slc6a11	0.49	1.72	1.48	enough cells to score	inactive
33	P4ha3		1.44	1.18	fewer than 50 cells per well; well left out of scoring	inactive
34	Crhbp	0.75	1.54	1.51	enough cells to score	inactive
35	4833444G19Rik		1.35	1.26	fewer than 50 cells per well; well left out of scoring	inactive
36	Ubash3b		1.08	1.15	fewer than 50 cells per well; well left out of scoring	inactive
37	Mfap4	0.02	1.6	1.66	enough cells to score	inactive
38	Krtap1-5		2.28	1.18	fewer than 50 cells per well; well left out of scoring	inactive
39	Swap70		1.32	1.16	fewer than 50 cells per well; well left out of scoring	inactive
40	Or5k3	-1.77	1.34	1.18	enough cells to score	active
